From article PMC6814788

By UniProt entry, the sequences of proteins in these tests, tags left out.
UniProt P49792: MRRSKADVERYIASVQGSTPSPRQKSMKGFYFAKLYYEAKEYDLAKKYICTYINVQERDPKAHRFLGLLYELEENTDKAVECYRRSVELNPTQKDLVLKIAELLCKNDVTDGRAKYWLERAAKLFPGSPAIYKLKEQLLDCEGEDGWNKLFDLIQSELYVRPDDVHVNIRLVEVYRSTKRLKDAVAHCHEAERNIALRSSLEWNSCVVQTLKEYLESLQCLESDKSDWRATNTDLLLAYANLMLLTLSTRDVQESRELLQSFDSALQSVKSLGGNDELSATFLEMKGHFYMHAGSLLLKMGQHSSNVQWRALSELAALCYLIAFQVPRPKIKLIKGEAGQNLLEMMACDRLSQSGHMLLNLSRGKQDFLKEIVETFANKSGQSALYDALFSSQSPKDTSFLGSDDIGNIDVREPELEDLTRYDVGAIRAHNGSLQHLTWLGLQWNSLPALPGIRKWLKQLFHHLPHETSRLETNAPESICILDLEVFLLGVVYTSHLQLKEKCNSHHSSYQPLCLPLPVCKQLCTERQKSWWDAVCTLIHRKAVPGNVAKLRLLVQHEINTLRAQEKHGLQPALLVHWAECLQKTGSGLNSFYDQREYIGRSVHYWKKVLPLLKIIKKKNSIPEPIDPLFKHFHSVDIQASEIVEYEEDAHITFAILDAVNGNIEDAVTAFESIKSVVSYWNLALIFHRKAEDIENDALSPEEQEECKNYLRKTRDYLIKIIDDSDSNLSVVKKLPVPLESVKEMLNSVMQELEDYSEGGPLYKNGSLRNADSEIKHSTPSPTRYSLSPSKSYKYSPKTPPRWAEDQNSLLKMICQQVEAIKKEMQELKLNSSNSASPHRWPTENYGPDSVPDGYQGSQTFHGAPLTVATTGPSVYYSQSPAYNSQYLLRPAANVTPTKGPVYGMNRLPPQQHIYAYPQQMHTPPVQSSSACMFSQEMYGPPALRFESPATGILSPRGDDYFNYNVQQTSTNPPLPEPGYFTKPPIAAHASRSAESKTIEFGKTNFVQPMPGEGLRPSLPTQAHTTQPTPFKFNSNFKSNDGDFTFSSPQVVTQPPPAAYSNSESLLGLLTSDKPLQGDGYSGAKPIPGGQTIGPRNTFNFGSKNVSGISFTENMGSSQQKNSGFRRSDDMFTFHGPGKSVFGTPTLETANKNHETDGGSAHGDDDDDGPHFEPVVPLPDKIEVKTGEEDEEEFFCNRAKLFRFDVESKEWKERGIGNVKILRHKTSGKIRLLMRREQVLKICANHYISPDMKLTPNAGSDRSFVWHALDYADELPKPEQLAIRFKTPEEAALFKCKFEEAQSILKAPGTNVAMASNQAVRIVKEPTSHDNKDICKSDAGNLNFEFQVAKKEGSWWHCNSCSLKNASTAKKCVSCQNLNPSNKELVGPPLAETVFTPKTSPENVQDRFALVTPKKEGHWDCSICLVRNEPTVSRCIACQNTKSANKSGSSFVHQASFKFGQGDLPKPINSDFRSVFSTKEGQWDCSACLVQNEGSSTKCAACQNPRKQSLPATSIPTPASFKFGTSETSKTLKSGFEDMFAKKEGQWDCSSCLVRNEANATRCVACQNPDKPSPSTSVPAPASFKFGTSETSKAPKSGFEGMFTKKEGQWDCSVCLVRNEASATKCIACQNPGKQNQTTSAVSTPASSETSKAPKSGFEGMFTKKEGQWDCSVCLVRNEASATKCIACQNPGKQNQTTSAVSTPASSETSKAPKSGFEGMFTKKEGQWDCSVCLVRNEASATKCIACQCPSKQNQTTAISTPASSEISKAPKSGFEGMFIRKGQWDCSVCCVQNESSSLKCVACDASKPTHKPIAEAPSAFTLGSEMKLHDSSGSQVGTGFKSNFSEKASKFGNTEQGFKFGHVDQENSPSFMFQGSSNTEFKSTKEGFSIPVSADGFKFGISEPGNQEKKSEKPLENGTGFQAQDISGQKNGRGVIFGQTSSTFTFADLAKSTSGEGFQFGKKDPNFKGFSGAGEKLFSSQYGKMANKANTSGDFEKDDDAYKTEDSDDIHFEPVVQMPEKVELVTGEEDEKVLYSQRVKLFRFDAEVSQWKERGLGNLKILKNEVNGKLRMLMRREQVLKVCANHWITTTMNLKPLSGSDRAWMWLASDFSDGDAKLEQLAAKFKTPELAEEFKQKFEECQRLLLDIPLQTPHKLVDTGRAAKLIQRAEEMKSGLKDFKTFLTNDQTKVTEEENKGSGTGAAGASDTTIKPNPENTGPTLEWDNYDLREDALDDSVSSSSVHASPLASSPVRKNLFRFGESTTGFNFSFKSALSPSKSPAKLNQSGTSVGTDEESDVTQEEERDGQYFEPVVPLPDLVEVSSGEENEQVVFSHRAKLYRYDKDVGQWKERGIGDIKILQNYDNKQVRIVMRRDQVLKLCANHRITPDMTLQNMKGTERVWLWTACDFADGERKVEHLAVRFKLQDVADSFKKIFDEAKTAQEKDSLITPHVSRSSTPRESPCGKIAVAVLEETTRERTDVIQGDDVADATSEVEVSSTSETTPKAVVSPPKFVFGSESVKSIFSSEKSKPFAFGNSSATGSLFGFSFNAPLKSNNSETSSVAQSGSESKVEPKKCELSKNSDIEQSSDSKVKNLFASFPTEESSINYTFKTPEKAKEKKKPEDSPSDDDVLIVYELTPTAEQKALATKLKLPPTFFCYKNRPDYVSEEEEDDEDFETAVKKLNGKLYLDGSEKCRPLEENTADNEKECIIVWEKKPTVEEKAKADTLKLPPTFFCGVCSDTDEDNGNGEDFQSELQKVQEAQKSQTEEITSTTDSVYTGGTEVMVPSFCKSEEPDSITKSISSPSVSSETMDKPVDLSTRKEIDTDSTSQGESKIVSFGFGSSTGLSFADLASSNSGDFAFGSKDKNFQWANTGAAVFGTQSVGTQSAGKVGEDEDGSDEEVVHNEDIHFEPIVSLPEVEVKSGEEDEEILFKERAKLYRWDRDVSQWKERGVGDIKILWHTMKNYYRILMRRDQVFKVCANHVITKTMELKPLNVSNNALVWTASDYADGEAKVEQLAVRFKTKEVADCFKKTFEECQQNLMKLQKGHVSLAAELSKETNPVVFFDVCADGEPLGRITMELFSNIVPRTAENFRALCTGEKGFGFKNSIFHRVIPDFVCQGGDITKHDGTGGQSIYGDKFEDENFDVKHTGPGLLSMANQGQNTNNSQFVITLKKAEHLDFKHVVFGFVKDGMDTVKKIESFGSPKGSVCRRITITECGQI

Target: Thioredoxin-related transmembrane protein 2 (TMX2), endogenous (human (endogenous in HEK293)) (UniProt Q9Y320)
Assay: affinity purification with mass spectrometry; HEK293 cell lysates immunoprecipitated with anti-TMX2 antibody (endogenous TMX2), SDS-PAGE, silver staining, bands analysed by LC-MS

binding: binds
Substance: RanBP2, endogenous (from UniProt P49792 1-3224)

Results are given in words; binding and its absence hold for the method and conditions named. Binding seen in cells or lysates may run through a third protein. These calls come from enrichment with a bait or labelling near it, and not all partners need be listed.
